According to PubChem BioAssay AID504648 (National Center for Advancing Translational Sciences (NCATS), 2011):
In all, about 390,000 compounds went through this assay and about 610 (0.16%) were called active. This list was built around the results that the source calls inconclusive (neither active nor inactive); the mix of calls is not that of the screen. Calls come from the whole dose curve; as a rule, active = well fitted inhibition curve with a large enough effect; inconclusive = small, poorly fitted or top-dose-only effect, or effect the other way, or another doubt; inactive = no such curve, though single readings can be large or run the other way. Where the call is inconclusive, the potency comes from a doubtful curve fit.

assay: Nrf2 qHTS screen for inhibitors: counterscreen for cytotoxicity; conditions: A549 ARE-Fluc cells, CellTiter-Fluor viability, 18-24 h; activity change, negative = cytotoxicity: at 46 µM (top of the series)
Summary of the method: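 A549 ARE-Fluc cells in 5% FBS OPTI-MEM, 5000 cells/well, rested 2 h then exposed to compounds in concentration-response for 18-24 h at 37 °C. Viability by CellTiter-Fluor fluorescence (Ex 405/Em 525) after 30 min; luciferase luminescence (BugLite, 15 min, RT) read afterwards.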
% is set by controls: 0 for no effect and ±100 for the full control effect; potency is the fitted concentration of half-maximal effect.

Row | Structure (SMILES) | activity change, negative = cytotoxicity | Potency
1 | CCc1sc(NC(=O)c2cc3ccccc3oc2=O)nc1-c1cccs1 | inactive: 1.52% | –
2 | C=CC[C@H](CC(=O)N(CCO)Cc1ccccc1)C(=O)N[C@H](COC(=O)[C@@H](CC=C)CC(=O)OC(C)(C)C)Cc1c[nH]c2ccccc12 | – | inconclusive: 20.6 µM [falling, partial curve, poor fit]
3 | Cc1ccccc1-c1nnn(Cc2cccc(S(=O)(=O)N3CCOCC3)c2)n1 | inactive: 14.6% | –
4 | O=C(NNC(=S)NCc1ccccc1)c1ccc2c(c1)OCO2 | inactive: 17.3% | –
5 | COc1ccc(/C=N/NC(=O)c2nc(-c3ccccc3)n(-c3ccccc3)n2)c(O)c1 | – | inconclusive: 20.6 µM [falling, partial curve, poor fit]
6 | O=C(NCCCN1CCOCC1)Nc1ccc(Cc2ccc(NC(=O)NCCCN3CCOCC3)cc2)cc1 | – | inconclusive: 2.59 µM [activator, full curve, poor fit]
7 | O=C(Cn1c(-c2cccs2)cc2ccccc21)NCCCN1CCN(c2ccccc2F)CC1 | – | inconclusive: 29.1 µM [falling, single point]
8 | Cc1ccc(NC(=O)c2c(NC(=O)C(F)(F)F)sc3c2CCCCC3)cc1 | – | inconclusive: 5.8 µM [falling, full curve]
9 | O=C(c1ccc2nc3ccc(Cl)cc3c(=O)n2c1)N1CCOCC1 | inactive: 1.74% | –
10 | Cc1onc(-c2c(F)cccc2Cl)c1C(=O)Nc1nnc(C(F)(F)F)s1 | – | inconclusive: 2.59 µM [falling, full curve]
11 | O=C(NCc1ccco1)C1CCN(C(=O)c2cc3sccc3n2Cc2ccc(F)cc2)CC1 | inactive: -23.7% | –
12 | O=C(NCCCN1CCN(c2ccccc2F)CC1)c1ccc2nc(N3CCCCC3)sc2c1 | – | inconclusive: 20.6 µM [falling, partial curve, poor fit]
13 | CC(C)C[C@H](NC(=O)c1nc[nH]c1C(=O)NC1CCN(C(=O)OC(C)(C)C)CC1)C(=O)OC(C)(C)C | inactive: -7.11% | –
14 | O=C(O)c1cc(-c2ccc(Cl)s2)nc2ccccc12 | inactive: -0.512% | –
15 | O=C(Nc1ccc(C(F)(F)F)cc1)C(Cc1ccccc1)n1cccc1 (stereo not drawn) | – | inconclusive: 32.6 µM [falling, partial curve, poor fit]
16 | CC(C)c1ccc(NC(=O)N(CCc2nc3ccccc3[nH]2)C2CCCC2)cc1 | – | inconclusive: 16.4 µM [falling, single point]
17 | Cc1c(CCNC(=O)C(C)(C)C)sc2nc(-c3ccc(F)cc3)nn12 | inactive: -14.2% | –
18 | Cc1nn(-c2ccccc2)c(C)c1/C=N/NC(=O)c1cccs1 | inactive: -9.38% | –
19 | O=c1c2c(-c3cccs3)csc2ncn1/N=C/c1ccc(OC(F)F)cc1 | – | inconclusive: 18.4 µM [falling, single point]
20 | CCOc1ccc(NC(=O)CN2C(=O)COc3ccc(S(=O)(=O)N4CCCCC4)cc32)cc1 | – | inconclusive: 32.6 µM [falling, partial curve, poor fit]
21 | CC(C)c1ccc(-n2c(-c3ccccc3)c[n+]3c2CCc2ccccc2-3)cc1 | – | active: 10.3 µM
22 | Cc1cc(C(=O)NC(C)C2CC2)c(Cl)cc1Cl (stereo not drawn) | inactive: 11.8% | –
23 | CCOc1nc(C#N)nc(N2CCOCC2)n1 | inactive: -3.54% | –

Reprinted at random: 5 compounds from above, in no set order.
Row | Structure (SMILES) | activity change, negative = cytotoxicity | Potency
17 | Cc1c(CCNC(=O)C(C)(C)C)sc2nc(-c3ccc(F)cc3)nn12 | inactive: -14.2% | –
16 | CC(C)c1ccc(NC(=O)N(CCc2nc3ccccc3[nH]2)C2CCCC2)cc1 | – | inconclusive: 16.4 µM [falling, single point]
10 | Cc1onc(-c2c(F)cccc2Cl)c1C(=O)Nc1nnc(C(F)(F)F)s1 | – | inconclusive: 2.59 µM [falling, full curve]
14 | O=C(O)c1cc(-c2ccc(Cl)s2)nc2ccccc12 | inactive: -0.512% | –
22 | Cc1cc(C(=O)NC(C)C2CC2)c(Cl)cc1Cl (stereo not drawn) | inactive: 11.8% | –

Continued.

Row | Structure (SMILES) | activity change, negative = cytotoxicity | Potency
24 | N#Cc1ccc(C23OCCN2CCn2nc4ccccc4c23)cc1 (stereo not drawn) | – | inconclusive: 1.3 µM [activator, full curve, poor fit]
25 | COc1cccc(NC(=O)Nc2cc(C(=O)NC(C)C)ccc2N2CC3CC(C2)c2cccc(=O)n2C3)c1 (stereo not drawn) | inactive: -1.7% | –
26 | N=c1c(C(=O)NC2CCCCC2)cc2c(=O)n3ccccc3nc2n1CC1CCCO1 (stereo not drawn) | – | inconclusive: 20.6 µM [activator, single point]
27 | Cc1ccc(NC(=O)C2=COCCO2)cc1S(=O)(=O)N1CCOCC1 | inactive: 8% | –
28 | O=[N+]([O-])c1cccc(C2=NCCC(c3ccccc3)O2)c1 (stereo not drawn) | inactive: 7.3% | –
29 | Cc1cc2nc(CCN(C(=S)NCC(C)C)C3CCCC3)[nH]c2cc1C | – | inconclusive: 25.9 µM [falling, single point]
30 | O=C(CCc1ccc(S(=O)(=O)N2CCOCC2)cc1)N/N=C/c1ccc(O)c(O)c1O | – | inconclusive: 23.1 µM [falling, single point]
31 | N#Cc1nc(Nc2cccc(Cl)c2)nc(NC2CCCC2)n1 | – | inconclusive: 32.6 µM [falling, single point]
32 | O=C(CCl)NCCCCCCCCCNC(=O)CCl | – | inconclusive: 23.1 µM [falling, single point]
33 | C=CC(=O)Nc1cccc(Oc2ccnc(Nc3ccc(N4CCN(C)CC4)cc3)n2)c1 | – | active: 1.64 µM
34 | COc1ccc(NC(=O)CN(C)CC(=O)Nc2ccc(C)c(S(=O)(=O)N3CCCCC3)c2)cc1 | – | inconclusive: 18.4 µM [falling, partial curve, poor fit]
35 | CCC1Sc2ccc(S(=O)(=O)CCC(=O)Nc3ccc(OC(F)(F)F)cc3)cc2NC1=O (stereo not drawn) | inactive: -11.5% | –
36 | Cc1nc(N2CCC(C)CC2)c2c(C)c(C(=O)Nc3ccc(C(F)(F)F)cc3)sc2n1 | – | inconclusive: 16.4 µM [falling, partial curve, poor fit]
37 | CCOC(=O)c1ccccc1NC(=O)CSc1nc2ccccc2c(=O)n1CCCN1CCOCC1 | – | inconclusive: 29.1 µM [falling, partial curve, poor fit]
38 | COc1ccc(C(=O)CSc2cc(C)[nH]c(=O)n2)cc1 | – | inconclusive: 7.31 µM [activator, partial curve, poor fit]
39 | COc1cc(C#Cc2c(-c3cncn3C)n(C)c3ccc(-c4ccc(OC)c(OC)c4)cc23)cc(OC)c1 | inactive: -0.124% | –
40 | CCc1ccc([C@@H]2CC=C(C(=O)O)[C@H](c3ccc(C)cc3)N2S(=O)(=O)c2ccc(C)cc2)cc1 | – | inconclusive: 25.9 µM [falling, single point]
41 | C#CCN1C(=O)S/C(=C\c2ccc(-c3ccc(Cl)c(C(=O)O)c3)o2)C1=O | – | inconclusive: 20.6 µM [falling, partial curve, poor fit]
42 | O=C(Nc1ccc(-c2nc3ccccc3s2)cc1)c1cc(-n2cnnc2)ccc1Cl | – | inconclusive: 29.1 µM [falling, single point]
43 | CCOC(=O)Cc1cc(C(=O)Nc2ccc(Br)cc2)sc1-c1ccc(C)cc1 | inactive: -1.42% | –
44 | CC1=NN(c2ccccc2)C(=O)C1C(=O)c1ccc([N+](=O)[O-])cc1 (stereo not drawn) | – | inconclusive: 16.4 µM [falling, partial curve, poor fit]
45 | O=C(COC(=O)C1(c2ccccc2F)CCCC1)NCc1ccc2c(c1)OCO2 | inactive: -0.63% | –
46 | CSC(=S)NN=C(C)c1cccc(C)n1 | – | inconclusive: 7.31 µM [falling, partial curve]

Row | Structure (SMILES) | activity change, negative = cytotoxicity | Potency
47 | COc1ccccc1NS(=O)(=O)c1ccc2oc(SCC(C)=O)nc2c1 | inactive: -4.97% | –
48 | COC(=O)CCS(=O)(=O)c1nc(-c2ccccc2)cc(C(F)(F)F)n1 | – | inconclusive: 9.2 µM [falling, partial curve, poor fit]
49 | C/C(=N\NC(=O)c1cccc2ccccc12)c1ccccn1 | – | inconclusive: 0.461 µM [falling, full curve, poor fit]
50 | Cc1nn(C)c(C)c1CN(C)S(=O)(=O)c1ccc2ccccc2c1 | inactive: -29.9% | –
51 | COc1ccc(/C=N/Nc2nncc3ccccc23)cc1 | – | inconclusive: 0.82 µM [activator, full curve, poor fit]
52 | CCOc1nc(-c2ccccc2)ccc1-c1noc(-c2cccs2)n1 | – | inconclusive: 10.3 µM [falling, single point]
53 | CCOCC(=O)NC1CCc2cc(OC(=O)COCC)c(OC)c(OC)c2-c2ccc(SC)c(=O)cc21 (stereo not drawn) | – | inconclusive: 7.31 µM [falling, partial curve, poor fit]
54 | Nc1cc(S(=O)(=O)Nc2ccc(Br)cc2)ccc1Cl | – | inconclusive: 32.6 µM [falling, partial curve, poor fit]
55 | O=C1NC(c2ccccc2)=C(c2nc3ccccc3s2)C(c2ccc(F)cc2)N1 (stereo not drawn) | – | inconclusive: 25.9 µM [falling, single point]
56 | CC(=O)c1ccc(OCC(O)CN2CCN(S(=O)(=O)c3c(C)c(C)cc(C)c3C)CC2)cc1 (stereo not drawn) | – | inconclusive: 32.6 µM [falling, partial curve, poor fit]
57 | Cc1nn(C)c(C)c1/C=C1/SC(=S)NC1=O | – | inconclusive: 29.1 µM [falling, partial curve, poor fit]
58 | COc1ccccc1N=C1NC(=O)/C(=C/c2ccc(N(C)C)cc2)S1 | – | inconclusive: 20.6 µM [falling, partial curve, poor fit]
59 | Cc1ccc(S(=O)(=O)Cc2ccc(C(=O)NCCCN3CCN(C)CC3)o2)cc1 | inactive: -4.46% | –
60 | O=C(NCc1cnc2ccccn12)C1CCC(=O)N(Cc2ccccc2F)C1 (stereo not drawn) | inactive: -4.27% | –
61 | CCOc1ccc(N=NC2C(=O)N(C(N)=S)N=C2C)cc1 (stereo not drawn) | – | inconclusive: 16.4 µM [falling, partial curve, poor fit]
62 | CCCN(CCC)CCNC(=O)C1CCN(Cc2nc(-c3ccc(Cl)cc3)oc2C)CC1 | – | inconclusive: 13 µM [falling, partial curve]
63 | CC1(C)CC(=O)c2cc(OCC(=O)N3CCCCCC3)ccc2O1 | inactive: 0.0947% | –
64 | CCC(C)(C(=O)NC1CCCCC1)N(C)C(=O)c1ccc2c(c1)OCO2 (stereo not drawn) | – | inconclusive: 2.59 µM [falling, partial curve, poor fit]
65 | Cc1ccc(NC(=O)c2ccccc2)cc1 | inactive: -1.41% | –
66 | CCN1C(=O)C(C(=O)c2ccccc2)SC1=S (stereo not drawn) | – | inconclusive: 16.4 µM [falling, partial curve, poor fit]
67 | Cc1ccc(NC(=O)CN(C)C(=O)c2cccc(Br)c2)cc1 | inactive: 0.312% | –
68 | NNC(=O)c1cccn(Cc2cccc(C(F)(F)F)c2)c1=O | – | inconclusive: 29.1 µM [falling, single point]
